Measured values reported in the supplement of paper PMC10331698.
± gives the standard deviation of the averaged measurements. Most values lie at the level of the controls, where differences are scatter.

What was measured:
Assay in all cases: level (log10 ratio to DMSO vehicle control); higher = higher biomarker level / cell amount than vehicle control
[1] = compound: C=C(C)C(=O)OCC(F)(F)C(F)(F)C(F)(F)C(F)(F)C(F)(F)C(F)(F)C(F)(F)F; details: in DMSO
Procedure: (§1)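 BioMAP Diversity Plus panel of 12 human primary cell co-culture systems (3C, 4H, LPS, SAg, BT, BF4T, BE3C, CASM3C, HDF3CGF, KF3CT, MyoF, Mphg). Compounds were added 1 h before stimulation and left for 24 h (MyoF 48 h; BT 72 h for soluble read-outs or 6 d for IgG). Biomarkers were read by ELISA, cytotoxicity by SRB, PBMC viability and proliferation by Alamar Blue. Each well value was divided by the mean of 8 DMSO control wells on the same plate and log10 transformed; duplicate blinded samples were tested at 4 concentrations.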

[2] = compound: FC(F)(F)C(F)(F)C(F)(F)CC1CO1 [1H,1H-Heptafluorobutyl epoxide]; details: 2200 nM; in DMSO
Procedure: as §1

[3] = compound: C=CC(=O)OCC(F)(F)C(F)(F)C(F)(F)C(F)(F)C(F)(F)C(F)(F)C(F)(F)F [1H,1H-Perfluorooctyl acrylate]; details: 2200 nM; in DMSO
Procedure: as §1

[4] = compound: FC(F)(F)C(F)(F)C(F)(F)CI [Heptafluorobutyl iodide]; details: 2200 nM; in DMSO
Procedure: as §1

[5] = compound: NC(=O)C(F)(F)C(F)(F)C(F)(F)C(F)F; details: in DMSO
Procedure: as §1

[6] = compound: OCC(F)(F)C(F)(F)C(F)(F)C(F)(F)C(F)(F)C(F)F [1H,1H,7H-Dodecafluoro-1-heptanol]; details: 2200 nM; in DMSO
Procedure: as §1

[7] = compound: O=C(O)C(F)(F)C(F)(F)C(F)F [4H-Perfluorobutanoic acid]; details: in DMSO
Procedure: as §1

[8] = compound: O=S(=O)(F)C(F)(F)C(F)(F)C(F)(F)C(F)(F)C(F)(F)C(F)(F)C(F)(F)C(F)(F)F [Perfluorooctanesulfonyl fluoride]; details: 2200 nM; in DMSO
Procedure: as §1

[9] = compound: CO[Si](C)(CCC(F)(F)C(F)(F)C(F)(F)C(F)(F)C(F)(F)C(F)(F)F)OC [Dimethoxymethyl((perfluorohexyl)ethyl)silane]; details: in DMSO
Procedure: as §1

[10] = compound: O=S(=O)(OCC(F)(F)F)C(F)(F)C(F)(F)C(F)(F)C(F)(F)F [2,2,2-Trifluoroethyl perfluorobutanesulfonate]; details: 2200 nM; in DMSO
Procedure: as §1

[11] = compound: NS(=O)(=O)C(F)(F)C(F)(F)C(F)(F)C(F)(F)C(F)(F)C(F)(F)C(F)(F)C(F)(F)F [Perfluorooctanesulfonamide]; details: in DMSO
Procedure: as §1

[12] = compound: O=S(=O)(O)C(F)(F)C(F)(F)C(F)(F)C(F)(F)C(F)(F)C(F)(F)C(F)(F)C(F)(F)F [Perfluorooctanesulfonic acid]; details: 2200 nM; in DMSO
Procedure: as §1

[13] = compound: C=CC(F)(F)C(F)(F)C(F)(F)C(F)(F)C(F)(F)C(F)(F)C(F)(F)C(F)(F)C=C [1,8-Divinylperfluorooctane]; details: in DMSO
Procedure: as §1

[14] = compound: NC(=O)C(F)(F)C(F)(F)F [Pentafluoropropionamide]; details: 2200 nM; in DMSO
Procedure: as §1

[15] = compound: COC(=O)C(F)(F)C(F)(F)OC(F)(C(F)(F)F)C(F)(F)OC(F)=C(F)F [Methyl perfluoro(3-(1-ethenyloxypropan-2-yloxy)propanoate)]; details: in DMSO
Procedure: as §1

[16] = compound: O=S(=O)(O)C(F)(F)C(F)(F)C(F)(F)C(F)(F)C(F)(F)C(F)(F)C(F)(F)C(F)(F)F [Potassium perfluorooctanesulfonate]; details: 2200 nM; in DMSO
Procedure: as §1

[17] = compound: OCCCCC(F)(F)C(F)(F)C(F)(F)C(F)(F)F [4:4 Fluorotelomer alcohol]; details: 2200 nM; in DMSO
Procedure: as §1

[18] = compound: O=P(O)(O)CCC(F)(F)C(F)(F)C(F)(F)C(F)(F)C(F)(F)C(F)(F)F [2-(Perfluorohexyl)ethylphosphonic acid]; details: 2200 nM; in DMSO
Procedure: as §1

Row | Test System | level (log10) ([1]; 740 nM) | level (log10) ([1]; 2200 nM) | level (log10) [2] | level (log10) [3] | level (log10) [4] | level (log10) ([5]; 2200 nM) | level (log10) ([5]; 6700 nM) | level (log10) ([5]; 20000 nM) | level (log10) ([5]; 60000 nM) | level (log10) [6] | level (log10) ([7]; 2200 nM) | level (log10) ([7]; 6700 nM) | level (log10) ([7]; 20000 nM) | level (log10) ([7]; 60000 nM) | level (log10) [8] | level (log10) ([9]; 740 nM) | level (log10) ([9]; 2200 nM) | level (log10) [10] | level (log10) ([11]; 2200 nM) | level (log10) ([11]; 6700 nM) | level (log10) ([11]; 20000 nM) | level (log10) [12] | level (log10) ([13]; 740 nM) | level (log10) ([13]; 2200 nM) | level (log10) [14] | level (log10) ([15]; 740 nM) | level (log10) ([15]; 2200 nM) | level (log10) [16] | level (log10) [17] | level (log10) [18]
1 | 4H:CD62P/P-selectin | 0.0095 ± 0.039 | -0.0085 ± 0.059 | 0.0185 ± 0.035 | -0.0025 ± 0.028 | -0.056 ± 0.028 | -0.0305 ± 0.029 | -0.017 | -0.017 ± 0.031 | 0.0195 ± 0.029 | 0.014 ± 0.13 | 0.017 ± 0.033 | -0.0185 ± 0.042 | 0.0005 ± 0.057 | -0.011 ± 0.04 | 0.0205 ± 0.079 | 0.005 ± 0.055 | -0.0135 ± 0.016 | -0.045 ± 0.014 | 0.018 ± 0.011 | 0.028 ± 0.014 | -0.0235 ± 0.018 | 0.022 ± 0.0099 | -0.039 ± 0.041 | -0.0145 ± 0.00071 | -0.0365 ± 0.059 | 0.004 ± 0.05 | 0.0345 ± 0.019 | 0.0235 ± 0.005 | -0.0195 ± 0.0021 | 0.0065 ± 0.021
2 | CASM3C:SRB | 0.009 ± 0.0099 | -0.001 ± 0.0071 | 0.0025 ± 0.012 | -0.002 | -0.0015 ± 0.00071 | -0.0095 ± 0.0064 | 0.0025 ± 0.00071 | -0.0115 ± 0.005 | -0.0085 ± 0.016 | -0.001 ± 0.0057 | -0.0015 ± 0.0064 | -0.0015 ± 0.0078 | -0.002 ± 0.0071 | 0 ± 0.0099 | -0.0025 ± 0.0021 | 0 ± 0.0014 | -0.002 ± 0.0028 | -0.0065 ± 0.005 | 0.005 | 0.0075 ± 0.011 | -0.0075 ± 0.0021 | 0.003 | -0.0025 ± 0.005 | -0.0035 ± 0.0035 | 0.002 | 0.002 ± 0.013 | 0.0055 ± 0.0021 | 0.0015 ± 0.00071 | 0.013 ± 0.0099 | 0.0075 ± 0.0021
3 | CASM3C:CCL2/MCP-1 | 0.0155 ± 0.03 | -0.009 ± 0.02 | 0.002 ± 0.0028 | 0.0035 ± 0.026 | 0.0205 ± 0.025 | 0.0035 ± 0.037 | -0.0055 ± 0.013 | -0.011 ± 0.018 | 0.015 ± 0.045 | -0.002 ± 0.014 | -0.013 ± 0.018 | 0.006 | -0.0065 ± 0.012 | 0.0065 ± 0.016 | -0.007 ± 0.025 | 0.0165 ± 0.042 | 0.0025 ± 0.005 | -0.01 ± 0.037 | 0.0255 ± 0.00071 | 0.01 ± 0.013 | 0.01 ± 0.023 | 0.014 ± 0.076 | 0.005 ± 0.035 | -0.018 ± 0.037 | 0.012 ± 0.024 | 0.0065 ± 0.037 | -0.004 ± 0.0057 | 0.0155 ± 0.069 | 0.033 ± 0.048 | 0.002 ± 0.034
4 | BE3C:CXCL8/IL-8 | 0.035 ± 0.048 | 0.012 ± 0.023 | 0.0285 ± 0.044 | 0.054 ± 0.058 | 0.013 ± 0.018 | 0.055 ± 0.072 | 0.025 ± 0.035 | 0.0405 ± 0.0078 | 0.0565 ± 0.04 | 0.0265 ± 0.087 | -0.0065 ± 0.028 | 0.015 ± 0.099 | 0.0165 ± 0.044 | 0.0695 ± 0.071 | 0.0355 ± 0.023 | 0.0445 ± 0.073 | 0.021 ± 0.017 | 0.0195 ± 0.023 | -0.019 ± 0.044 | -0.123 ± 0.0099 | -0.192 ± 0.013 | 0.0145 ± 0.063 | 0.0255 ± 0.071 | 0.0045 ± 0.047 | 0.0195 ± 0.06 | 0.0165 ± 0.11 | 0.033 ± 0.024 | 0.0325 ± 0.12 | 0.0105 ± 0.071 | -0.028 ± 0.083
5 | HDF3CGF:CXCL10/IP-10 | -0.0185 ± 0.029 | -0.02 ± 0.014 | -0.008 ± 0.023 | -0.0135 ± 0.015 | -0.0125 ± 0.0092 | -0.0085 ± 0.0021 | -0.001 ± 0.0014 | -0.0065 ± 0.0021 | 0.002 ± 0.011 | -0.008 ± 0.011 | 0.0155 ± 0.0078 | -0.0145 ± 0.016 | 0.0025 ± 0.0021 | 0.0085 ± 0.012 | -0.0165 ± 0.005 | 0.0075 ± 0.028 | 0.0105 ± 0.026 | -0.005 ± 0.028 | -0.079 ± 0.05 | -0.216 ± 0.011 | -0.893 ± 0.047 | -0.0135 ± 0.029 | -0.0025 ± 0.025 | 0.008 ± 0.0071 | 0.0125 ± 0.0092 | -0.0025 ± 0.03 | -0.039 ± 0.0057 | -0.019 ± 0.0028 | 0.003 ± 0.027 | 0.012 ± 0.0071
6 | HDF3CGF:Collagen I | -0.0075 ± 0.042 | -0.003 ± 0.016 | 0.006 ± 0.037 | 0.0205 ± 0.012 | 0.0665 ± 0.12 | 0.0305 ± 0.1 | -0.005 ± 0.058 | 0.005 ± 0.021 | 0.027 ± 0.02 | 0.012 ± 0.048 | 0.029 ± 0.088 | -0.0445 ± 0.028 | -0.024 ± 0.072 | 0.0525 ± 0.029 | 0.0465 ± 0.044 | 0.0205 ± 0.11 | -0.037 ± 0.028 | 0.032 ± 0.061 | -0.0035 ± 0.028 | 0.08 ± 0.037 | -0.0535 ± 0.046 | 0.015 ± 0.09 | 0.0195 ± 0.091 | 0.0575 ± 0.047 | 0.0245 ± 0.079 | 0.03 ± 0.013 | -0.019 ± 0.065 | 0.0455 ± 0.067 | 0.046 ± 0.042 | 0.013 ± 0.062
7 | CASM3C:CD87/uPAR | -0.0115 ± 0.022 | -0.0075 ± 0.0078 | -0.0205 ± 0.033 | 0.0195 ± 0.025 | -0.017 ± 0.024 | -0.023 ± 0.017 | -0.0115 ± 0.015 | -0.0035 ± 0.0078 | -0.019 ± 0.017 | -0.0165 ± 0.0064 | 0 ± 0.014 | -0.016 ± 0.013 | 0 ± 0.02 | 0.0055 ± 0.022 | -0.0215 ± 0.0092 | -0.0055 ± 0.013 | -0.0145 ± 0.0035 | -0.015 ± 0.051 | -0.0015 ± 0.013 | -0.007 ± 0.031 | -0.0055 ± 0.026 | 0.003 ± 0.0071 | -0.0115 ± 0.015 | -0.016 ± 0.024 | -0.008 ± 0.0071 | -0.013 ± 0.047 | -0.016 ± 0.034 | -0.0055 ± 0.0021 | -0.0125 ± 0.059 | -0.05 ± 0.025
